Each structure is given as a SMILES string. The list shows a part of the results.

The test deals with T1, CTL2-GFP (C. trachomatis L2/434/Bu, GFP-expressing).
T1 construct: L2/434/Bu, GFP-expressing
Also noted: species or system HeLa; Intracellular C. trachomatis growth in HeLa cells, bulk GFP fluorescence relative to DMSO. As to conditions: bulk GFP, single well; 28.5 h, 10 µM; inhibitor.
For the compound `O=c1ccccn1COCc1ccccc1` [CBK006438], the “% of control remaining” value stood at 119.608%.

As for `CC(C)C(=O)Nc1cc2cccnc2nc1-c1ccc2c(c1)OCCCO2` [CBK073658], the “% of control remaining” value was determined as 155.866%.

`O=C(O)/C(=N\c1cccc2ccccc12)c1ccccc1` [CBK262224]: the “% of control remaining” value is 26.0107%.

On to `O=c1[nH]c2cccc3c2n1C[C@H](NCCc1ccccc1)C3` [CBK016688C], for which the “% of control remaining” value is listed as 56.3977%.

Regarding `c1csc(C2Nc3ccccc3C3=NCCCN32)c1` (stereo not shown) [CBK284489], the “% of control remaining” value is recorded as 101.979%.

As to `COc1cc(/C=C/C(=O)O)cc(S(=O)(=O)N2CCc3ccccc3C2)c1OC` [CBK264406], the “% of control remaining” value came to 100%.

In the case of `N#Cc1ccc(-c2csc(NC(=O)c3ccc(Cl)s3)n2)cc1` [CBK287321], the “% of control remaining” value came out at 102.563%.

Consider `Cc1nc2ccc(C(=O)N3CCN(C)CC3)cn2c1N(C)C(=O)CCc1ccccc1` [CBK146786], for which the “% of control remaining” value amounted to 123.355%.

Consider `COc1c(Cl)cc(Cl)cc1CNCCCN1CCOCC1` [CBK278165C], for which the “% of control remaining” value is reported as 156.954%.

As for `COC(=O)c1sccc1-c1ccc(C2C3=C(CCCC3=O)NC3=C2C(=O)CCC3)o1` [CBK005748], the “% of control remaining” value was 132.194%.

For `CCNc1nccnc1-c1ccncc1` [CBK088586], the “% of control remaining” value stood at 103.437%.

On to `CC(C)(C)C1=CC2=NC3(CCC3)C3C[C@](O)(Cc4ccccc4)[C@@H](O)[C@@H]3N2O1` (stereo partly shown) [CBK303261], for which the “% of control remaining” value is listed as 133.073%.

As for `Cc1ccn(CCNC(=O)Cn2c3c(c4ccccc42)CCC3)n1` [CBK282708], the “% of control remaining” value is reported as 128.352%.

`COc1ccc([N+](=O)[O-])cc1N(CC(=O)Nc1cccc2ccccc12)S(C)(=O)=O` [CBK268197]: the “% of control remaining” value was determined as 95.2284%.

On to `O=C(Nc1cc(Oc2cccnc2)cc([N+](=O)[O-])c1)c1cc2nc(-c3ccccc3)cc(-c3ccccc3)n2n1` [CBK262554], for which the “% of control remaining” value was found to be 100.826%.

Regarding `CCC(=O)N1CCC(c2nc(C3CCCC3)no2)C1` (stereo not shown) [CBK285458], the “% of control remaining” value amounted to 115.722%.

In the case of `O=C(O)CC1(CNC(=O)Cn2nc(-c3ccccc3)ccc2=O)CCCCC1` [CBK286866], the “% of control remaining” value stood at 133.098%.

For the compound `COCCC(=O)NC(Cc1ccsc1)c1nc(C)cs1` (stereo not shown) [CBK282830], the “% of control remaining” value was 115.12%.

Turning to `CCOc1ccc(-c2cncc(N3CCC(C(=O)O)CC3)n2)cc1` [CBK065870], the “% of control remaining” value was determined as 182.217%.

For the compound `CCN1CCC(CC(=O)N2CCC(c3ccccc3)C2)CC1` (stereo not shown) [CBK281958], the “% of control remaining” value was 161.937%.

In the case of `Cc1nc(C)n(CC2CCCN2Cc2cn3ccccc3c2C#N)n1` (stereo not shown) [CBK304006], the “% of control remaining” value was 126.302%.

`Cn1c(C(=O)NCCN2CCOCC2)cc2oc(-c3ccccc3)nc2c1=O` [CBK056726T]: the “% of control remaining” value is 143.368%.

As to `CC(NC(=O)CC(C)n1cccn1)c1cc2cc(Cl)ccc2o1` (stereo not shown) [CBK281432], the “% of control remaining” value was 122.645%.

Turning to `Cc1nn(C)cc1C(C)NC(=O)C1(c2ccccc2F)CCOCC1` (stereo not shown) [CBK281594], the “% of control remaining” value amounted to 130.53%.

For `CN(CC1CCCC1)c1nccc(N2CCN[C@H]3CS(=O)(=O)C[C@H]32)n1` [CBK307060], the “% of control remaining” value was determined as 189.4%.

For the compound `Cc1cc2c(cc3c(=O)n(CC(=O)N4CCCCC4)nc(C)n32)s1` [CBK284063], the “% of control remaining” value is reported as 135.805%.

In the case of `O=[N+]([O-])c1ccc(Cc2cc[n+](-c3nc4ccccc4nc3[N-]S(=O)(=O)c3ccc([N+](=O)[O-])cc3)cc2)cc1` [CBK301201], the “% of control remaining” value came to 94.708%.

Regarding `CN(CC(=O)O)C(=O)c1ccc(S(=O)(=O)N2CCCCC2)cc1` [CBK265715], the “% of control remaining” value is reported as 81.8201%.

Regarding `Cc1ccc(CN(CCCn2ccnc2)Cc2ccccn2)o1` [CBK283102], the “% of control remaining” value is 85.376%.

With `COc1ccc(C(=O)Nc2cncc(OC3CCNCC3)n2)cc1` [CBK036370T], the “% of control remaining” value was 126.712%.

Consider `O=C(CC(CN1CCN(c2ccccn2)CC1)C(=O)O)NC1CCCCC1` (stereo not shown) [CBK286812], for which the “% of control remaining” value is 100%.

Take `Cc1cc(C)nc(Nc2n[nH]c(-c3cccnc3)n2)n1` [CBK267120]: the “% of control remaining” value is reported as 134.228%.

On to `O=C(O)c1ccc(Br)c(S(=O)(=O)NCc2ccccc2)c1` [CBK263202], for which the “% of control remaining” value is recorded as 112.166%.

Regarding `CN(C)CCNC(=O)CSc1ccccc1` [CBK268426], the “% of control remaining” value came out at 80.3604%.

On to `CC(CO)(CO)NCc1ccc(-c2ccccc2)cc1` [CBK268325C], for which the “% of control remaining” value is 117.292%.

Take `COCCCNCCn1cnc2c(N)ncnc21` [CBK277059]: the “% of control remaining” value came to 145.654%.

On to `CCCCN(C=O)c1c(CC)nc2ccc(C(=O)N3CCN(C)CC3)cn12` [CBK145707], for which the “% of control remaining” value is 125.297%.

On to `CCOc1ccc(CC(=O)NN2CCOCC2)cc1OCC` [CBK268150], for which the “% of control remaining” value came out at 108.2%.

Regarding `O=c1[nH]nc(SCc2ccccc2Cl)c(=S)[nH]1` [CBK027795], the “% of control remaining” value was 88.9545%.

As to `Cc1nsc(NCc2ccccc2CN2CCCC2CO)c1C#N` (stereo not shown) [CBK304124], the “% of control remaining” value was determined as 121.285%.

For the compound `CCc1ccc(C(=O)Nc2ccc(NC(C)=O)cc2C(F)(F)F)cc1` [CBK295202], the “% of control remaining” value came to 152.899%.

On to `O=C(c1ccsc1NS(=O)(=O)/C=C/c1ccccc1)N1CCOCC1` [CBK042285], for which the “% of control remaining” value was 124.033%.

In the case of `N#CCCn1cc(C(=O)N2CCCCC2)c(-c2ccc(F)cc2)n1` [CBK306191], the “% of control remaining” value turned out to be 141.178%.

Take `Cc1cc(C(C)(C)C)cc(C)c1COC(=O)c1ccncc1` [CBK296995]: the “% of control remaining” value was determined as 72.8308%.

Consider `Cc1nccn1CCC(=O)Nc1ccccc1Oc1ccc(F)cc1` [CBK281473], for which the “% of control remaining” value was found to be 139.57%.

In the case of `O=[N+]([O-])c1cccc(S(=O)(=O)NCCOc2cccc3cccnc23)c1` [CBK268489], the “% of control remaining” value is given as 113.913%.

In the case of `O=S(=O)(NCCCN1CCOCC1)c1cc(C(F)(F)F)cc(C(F)(F)F)c1` [CBK005796], the “% of control remaining” value is reported as 112.048%.

Regarding `CNC(=O)c1cc(-c2cccc(Cl)c2)oc1CC(=O)c1ccc(CN2CCCC2)cc1` [CBK047558], the “% of control remaining” value was found to be 135.577%.

As to `O=C(NC(NCc1ccc2c(c1)OCO2)(C(F)(F)F)C(F)(F)F)c1cccnc1` [CBK074397], the “% of control remaining” value is 104.021%.

Regarding `O=C(O)c1ccc(N2C(=O)CC(N3CCN(CCO)CC3)C2=O)cc1` (stereo not shown) [CBK271638], the “% of control remaining” value was found to be 114.971%.

As to `Cc1nc(COc2ccc(C(=O)Nc3ccc(C(=O)O)cc3C)cc2)cs1` [CBK295360], the “% of control remaining” value came out at 136.495%.

`CCn1cc(-c2cncn2CCCOc2cccc(C)c2)cn1` [CBK281760]: the “% of control remaining” value was 175.835%.

In the case of `O=C(O)C1(NS(=O)(=O)c2ccc(F)c(Cl)c2)CCCCC1` [CBK267276], the “% of control remaining” value is given as 127.393%.

In the case of `CN(CCN1CCCCC1)C(=O)Cn1cnc2ccccc21` [CBK281515], the “% of control remaining” value is recorded as 128.47%.

Regarding `O=C(Cn1cccc(C(=O)Nc2cc(F)ccc2N2CCCC2)c1=O)NC1CCCCC1` [CBK286008], the “% of control remaining” value is 114.928%.

For `O=C1COc2ccccc2C/C=C/CC2(CCCN(C(=O)CCN3CCCC3)C2)CN1` (stereo not shown) [CBK292136], the “% of control remaining” value was determined as 149.171%.

Regarding `Cc1ccc(NC(=S)NC(=O)Cc2ccccc2)c(O)c1` [CBK264337], the “% of control remaining” value turned out to be 108.834%.

Take `Cc1cc(C)n(C(=O)c2ccc([N+](=O)[O-])cc2N)n1` [CBK266491]: the “% of control remaining” value was 153.502%.

Turning to `Oc1ccccc1-c1cc(-c2ccccc2)c2c(ccc3ncccc32)n1` [CBK261276], the “% of control remaining” value was 117.665%.

In the case of `Cc1c(Cl)c([N+](=O)[O-])nn1CCCC(=O)Nc1sc2c(c1C#N)CCC(C(C)(C)C)C2` (stereo not shown) [CBK269111], the “% of control remaining” value is 104.333%.

Turning to `CC(C)(C)NC(=O)C[C@@H]1CCNC[C@@H]1Cc1cc(-c2ccccc2)on1` [CBK289145], the “% of control remaining” value is 114.3%.

For the compound `Cc1csc(C(C)NC(=O)NC2CCCN(c3ccn(C)n3)C2=O)n1` (stereo not shown) [CBK304426], the “% of control remaining” value was 103.628%.

With `Nc1nonc1-n1nncc1CN1CCCCC1` [CBK307045], the “% of control remaining” value came to 113.13%.

In the case of `O=C(Nc1ccccc1-n1cccc1)C1Cc2c([nH]c3ccccc23)C2(CCN(Cc3ccccc3)C2)N1` (stereo not shown) [CBK059395], the “% of control remaining” value came to 100%.

Regarding `CCN(Cc1ccccn1)C(=O)NC(C)c1cccc(NC(C)=O)c1` (stereo not shown) [CBK305380], the “% of control remaining” value worked out at 80.0347%.

Take `O=C(O)c1ccccc1-c1ccccc1C(=O)Nc1cccc(-c2nc3ccccc3o2)c1` [CBK262767]: the “% of control remaining” value came to 111.977%.

For `COc1ccc(C)cc1C1(CNC(=O)C2CC(O)CN2)CCOCC1` (stereo not shown) [CBK304162], the “% of control remaining” value came out at 123.011%.

As for `Cc1nnc(NC(=O)Cc2ccc(F)cc2)s1` [CBK287360], the “% of control remaining” value turned out to be 105.586%.

As to `OC1CC(c2cc(F)ccc2F)N(CCc2ccncc2)C1` (stereo not shown) [CBK305106], the “% of control remaining” value was 118.503%.

As to `CC(C)(C)OC(=O)NCc1ccc(CNCc2cccc(Cl)c2)cc1` [CBK056704], the “% of control remaining” value stood at 88.7529%.

Consider `Cc1cc(CN2CCCN(S(=O)(=O)c3ccc(C(F)(F)F)cc3Cl)CC2)cc(C)c1O` [CBK063102], for which the “% of control remaining” value was found to be 112.811%.

With `Cc1oc(CC(C)C)c(CN2CCCCC2)c1C(=O)O` [CBK265448C], the “% of control remaining” value was found to be 95.9846%.

Take `O=C(NC(c1ccccc1)c1ccccc1)N1CCN(CCc2ccccc2)CC1` [CBK158905]: the “% of control remaining” value is on record as 119.534%.

Consider `Cc1ccc(CN(CCCn2ccnc2)Cc2cncn2C)s1` [CBK283106], for which the “% of control remaining” value came to 103.971%.

On to `O=C1CC2(CCN(C(=O)c3ccoc3)CC2)Oc2ccc3ccccc3c21` [CBK156444], for which the “% of control remaining” value was found to be 103.013%.

In the case of `COc1ccc(OC)c(-c2cc(C(=O)O)c(C)s2)c1` [CBK049922], the “% of control remaining” value came to 92.1457%.

With `C[C@@H]1CN(C(=O)c2cc3c(C(=O)OC(C)(C)C)ncn3c3ccc(Cl)cc23)C[C@H](C)N1` [CBK016744], the “% of control remaining” value came out at 102.195%.

With `C[N+](C)(C)c1ccc(C(=O)O)cc1` [CBK260929B], the “% of control remaining” value is 112.079%.

As to `O=C([C@H]1O[C@H](CCN2CCN(c3ccccc3)CC2)CC[C@@H]1O)N1CCOCC1` [CBK288724], the “% of control remaining” value was 106.495%.

The values above are taken from PMC12040169 (PLOS Biology, 2025).
